According to US20080305111A1, “Anti-C35 antibodies for treating cancer” (VACCINEX, INC., priority 2006, published 2008):
No constants are given. Whether binding was seen depends on the method and setting.

Target: β-galactosidase protein
Assay: flow cytometry competition: 1F2-Alexa 647 pre-incubated with β-galactosidase protein, then staining of apoptotic Taxol-treated 21MT1 cells

B1: 1F2 murine anti-C35 monoclonal antibody (antibody, V domains shown)
VH: DVQLQESGPGLVKPSQSLSLTCSVTGYSITSGYFWNWIRQFPGNKLEWMGYISYDGSNNSNPSLKNRISFTRDTSKNQFFLKFNSVTTDDSAAYYCTRGTTGFAYWGQGTLVTVSA
VL: QIVLTQSPAIMSASPGEKVTISCSASSSVSYMNWYQQKPGSSPKPWIYHTSNLASGVPARFSGSGSGTSYSLTISSMEAEDAATYYCQQYHSYPPTFGGGTKLEIK
With B1 the binding was “no binding (tested: 100-fold molar excess over 100 ng 1F2)”.
